Reference: paper PMC9484695, “The evolutionary conserved proteins CEP90, FOPNL, and OFD1 recruit centriolar distal appendage proteins to initiate their assembly” (PLoS Biology, 2022)

Biological target: GFP-tagged mouse FOPNL (mouse)
Assay: co-IP; Hela Kyoto GFP-FOPNL lysate (50 mM Tris-HCl pH 7.5, 150 mM NaCl, 1 mM EDTA, 1% NP-40, 0.25% sodium deoxycholate); agarose beads with mouse anti-GFP or mouse IgG, 3 h at 4°C; blots with anti-GFP, CEP90 and OFD1

B1: CEP90/PIBF1 (endogenous) (protein, UniProt Q8WXW3 1-757)
chain: MSRKISKESKKVNISSSLESEDISLETTVPTDDISSSEEREGKVRITRQLIERKELLHNIQLLKIELSQKTMMIDNLKVDYLTKIEELEEKLNDALHQKQLLTLRLDNQLAFQQKDASKYQELMKQEMETILLRQKQLEETNLQLREKAGDVRRNLRDFELTEEQYIKLKAFPEDQLSIPEYVSVRFYELVNPLRKEICELQVKKNILAEELSTNKNQLKQLTETYEEDRKNYSEVQIRCQRLALELADTKQLIQQGDYRQENYDKVKSERDALEQEVIELRRKHEILEASHMIQTKERSELSKEVVTLEQTVTLLQKDKEYLNRQNMELSVRCAHEEDRLERLQAQLEESKKAREEMYEKYVASRDHYKTEYENKLHDELEQIRLKTNQEIDQLRNASREMYERENRNLREARDNAVAEKERAVMAEKDALEKHDQLLDRYRELQLSTESKVTEFLHQSKLKSFESERVQLLQEETARNLTQCQLECEKYQKKLEVLTKEFYSLQASSEKRITELQAQNSEHQARLDIYEKLEKELDEIIMQTAEIENEDEAERVLFSYGYGANVPTTAKRRLKQSVHLARRVLQLEKQNSLILKDLEHRKDQVTQLSQELDRANSLLNQTQQPYRYLIESVRQRDSKIDSLTESIAQLEKDVSNLNKEKSALLQTKNQMALDLEQLLNHREELAAMKQILVKMHSKHSENSLLLTKTEPKHVTENQKSKTLNVPKEHEDNIFTPKPTLFTKKEAPEWSKKQKMKT
For B1, the binding was “binds”.

B2: OFD1 (endogenous) (natural protein, UniProt O75665 1-1012, looked up)
chain: MMAQSNMFTVADVLSQDELRKKLYQTFKDRGILDTLKTQLRNQLIHELMHPVLSGELQPRSISVEGSSLLIGASNSLVADHLQRCGYEYSLSVFFPESGLAKEKVFTMQDLLQLIKINPTSSLYKSLVSGSDKENQKGFLMHFLKELAEYHQAKESCNMETQTSSTFNRDSLAEKLQLIDDQFADAYPQRIKFESLEIKLNEYKREIEEQLRAEMCQKLKFFKDTEIAKIKMEAKKKYEKELTMFQNDFEKACQAKSEALVLREKSTLERIHKHQEIETKEIYAQRQLLLKDMDLLRGREAELKQRVEAFELNQKLQEEKHKSITEALRRQEQNIKSFEETYDRKLKNELLKYQLELKDDYIIRTNRLIEDERKNKEKAVHLQEELIAINSKKEELNQSVNRVKELELELESVKAQSLAITKQNHMLNEKVKEMSDYSLLKEEKLELLAQNKLLKQQLEESRNENLRLLNRLAQPAPELAVFQKELRKAEKAIVVEHEEFESCRQALHKQLQDEIEHSAQLKAQILGYKASVKSLTTQVADLKLQLKQTQTALENEVYCNPKQSVIDRSVNGLINGNVVPCNGEISGDFLNNPFKQENVLARMVASRITNYPTAWVEGSSPDSDLEFVANTKARVKELQQEAERLEKAFRSYHRRVIKNSAKSPLAAKSPPSLHLLEAFKNITSSSPERHIFGEDRVVSEQPQVGTLEERNDVVEALTGSAASRLRGGTSSRRLSSTPLPKAKRSLESEMYLEGLGRSHIASPSPCPDRMPLPSPTESRHSLSIPPVSSPPEQKVGLYRRQTELQDKSEFSDVDKLAFKDNEEFESSFESAGNMPRQLEMGGLSPAGDMSHVDAAAAAVPLSYQHPSVDQKQIEEQKEEEKIREQQVKERRQREERRQSNLQEVLERERRELEKLYQERKMIEESLKIKIKKELEMENELEMSNQEIKDKSAHSENPLEKYMKIIQQEQDQESADKSSKKMVQEGSLVDTLQSSDKVESLTGFSHEELDDSW
notes: OFD1, endogenous human protein; source: endogenous: HEK293 Flp-In cells (BioID); Hela Kyoto lysate (co-IP); U2OS cells (microtubule recruitment assay)
With B2 the binding was “binds”.

Results are given in words; binding and its absence hold for the method and conditions named. Binding seen in cells or lysates may run through a third protein. Binding can be weak; no strength is given.
